The values that follow come from doi:10.1101/2019.12.20.885392.

Amino acid sequences for entries named in this document (tags omitted).
UniProt Q5CCK4: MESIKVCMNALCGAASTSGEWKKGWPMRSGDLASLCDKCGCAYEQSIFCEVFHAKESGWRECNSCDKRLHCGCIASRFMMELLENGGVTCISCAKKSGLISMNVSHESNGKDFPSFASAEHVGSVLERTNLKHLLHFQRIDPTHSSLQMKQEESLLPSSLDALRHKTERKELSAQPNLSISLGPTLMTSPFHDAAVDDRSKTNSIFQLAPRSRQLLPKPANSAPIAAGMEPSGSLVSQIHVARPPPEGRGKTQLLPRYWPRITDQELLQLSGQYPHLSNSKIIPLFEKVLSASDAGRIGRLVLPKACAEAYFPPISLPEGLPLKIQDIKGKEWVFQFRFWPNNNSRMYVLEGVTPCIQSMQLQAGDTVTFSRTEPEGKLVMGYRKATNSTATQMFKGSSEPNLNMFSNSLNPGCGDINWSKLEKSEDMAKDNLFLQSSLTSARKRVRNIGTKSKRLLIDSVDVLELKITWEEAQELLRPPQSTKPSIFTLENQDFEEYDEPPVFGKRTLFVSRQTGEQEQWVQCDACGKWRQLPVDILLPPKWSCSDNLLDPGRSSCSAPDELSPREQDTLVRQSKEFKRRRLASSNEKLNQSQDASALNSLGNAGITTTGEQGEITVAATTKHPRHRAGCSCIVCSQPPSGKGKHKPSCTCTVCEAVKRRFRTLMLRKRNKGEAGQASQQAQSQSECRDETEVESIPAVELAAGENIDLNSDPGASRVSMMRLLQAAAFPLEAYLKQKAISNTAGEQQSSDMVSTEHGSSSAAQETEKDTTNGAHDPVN

The target in assay [1] is T1, HIGH-LEVEL EXPRESSION OF SUGAR INDUCIBLE2 (HSI2), BiFC fusion (Arabidopsis thaliana) (UniProt Q8W4L5).
T1 sequence: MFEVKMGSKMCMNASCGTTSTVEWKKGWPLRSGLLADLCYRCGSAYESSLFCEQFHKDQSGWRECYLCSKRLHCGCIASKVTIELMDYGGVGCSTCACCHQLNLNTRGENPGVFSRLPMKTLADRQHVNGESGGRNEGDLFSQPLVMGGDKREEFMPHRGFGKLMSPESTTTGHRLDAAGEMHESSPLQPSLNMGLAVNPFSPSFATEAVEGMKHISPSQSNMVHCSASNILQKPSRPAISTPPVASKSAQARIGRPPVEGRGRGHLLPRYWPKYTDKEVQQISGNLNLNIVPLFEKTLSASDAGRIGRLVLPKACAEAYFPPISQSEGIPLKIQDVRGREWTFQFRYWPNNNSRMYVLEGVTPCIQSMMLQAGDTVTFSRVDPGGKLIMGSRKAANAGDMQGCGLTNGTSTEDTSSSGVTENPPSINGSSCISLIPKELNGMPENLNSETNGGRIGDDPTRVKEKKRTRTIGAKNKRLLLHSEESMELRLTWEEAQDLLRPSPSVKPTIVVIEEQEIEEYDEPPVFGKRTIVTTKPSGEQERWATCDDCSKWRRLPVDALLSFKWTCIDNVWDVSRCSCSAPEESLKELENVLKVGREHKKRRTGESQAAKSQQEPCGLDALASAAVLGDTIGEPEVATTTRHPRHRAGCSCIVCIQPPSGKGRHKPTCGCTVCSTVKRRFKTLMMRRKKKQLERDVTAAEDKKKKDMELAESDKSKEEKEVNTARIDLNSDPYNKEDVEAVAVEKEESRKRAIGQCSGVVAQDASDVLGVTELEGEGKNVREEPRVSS
The assay can be described thus: split reporter.

Assay [2] deals with HSI2-LIKE1 (HSL1), BiFC fusion (Arabidopsis thaliana) (UniProt Q5CCK4). The assay can be described thus: split reporter.
The target in assay [3] is T2, HSI2-GFP, for co-immunoprecipitation (Arabidopsis thaliana) (UniProt Q8W4L5).
T2 sequence: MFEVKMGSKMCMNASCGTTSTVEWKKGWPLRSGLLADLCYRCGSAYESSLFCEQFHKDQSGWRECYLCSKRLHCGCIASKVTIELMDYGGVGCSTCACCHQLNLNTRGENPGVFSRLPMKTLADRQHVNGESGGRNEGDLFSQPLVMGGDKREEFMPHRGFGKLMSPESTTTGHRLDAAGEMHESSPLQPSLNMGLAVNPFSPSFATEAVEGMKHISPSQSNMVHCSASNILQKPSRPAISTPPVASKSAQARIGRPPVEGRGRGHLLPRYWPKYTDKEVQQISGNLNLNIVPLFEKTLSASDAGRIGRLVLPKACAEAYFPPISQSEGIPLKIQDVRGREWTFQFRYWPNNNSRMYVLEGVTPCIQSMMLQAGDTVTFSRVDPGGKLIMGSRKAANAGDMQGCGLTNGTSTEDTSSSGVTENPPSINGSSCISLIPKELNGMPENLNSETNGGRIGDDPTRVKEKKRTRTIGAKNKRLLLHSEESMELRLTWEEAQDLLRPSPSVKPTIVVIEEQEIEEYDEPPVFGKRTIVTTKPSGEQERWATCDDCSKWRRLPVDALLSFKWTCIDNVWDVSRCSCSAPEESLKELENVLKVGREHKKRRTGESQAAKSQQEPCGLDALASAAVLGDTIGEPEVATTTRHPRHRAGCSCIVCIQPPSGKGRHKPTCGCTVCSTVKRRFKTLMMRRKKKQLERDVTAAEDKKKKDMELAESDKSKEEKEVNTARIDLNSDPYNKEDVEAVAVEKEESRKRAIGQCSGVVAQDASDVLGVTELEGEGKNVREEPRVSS
Nature of the assay: co-IP.

In assay [4] the target is HSL1-GFP, for co-immunoprecipitation (Arabidopsis thaliana) (UniProt Q5CCK4). The assay can be described thus: co-IP.
Assay [5] has as its target T3, HSI2, yeast two-hybrid fusion (Arabidopsis thaliana) (UniProt Q8W4L5).
T3 sequence: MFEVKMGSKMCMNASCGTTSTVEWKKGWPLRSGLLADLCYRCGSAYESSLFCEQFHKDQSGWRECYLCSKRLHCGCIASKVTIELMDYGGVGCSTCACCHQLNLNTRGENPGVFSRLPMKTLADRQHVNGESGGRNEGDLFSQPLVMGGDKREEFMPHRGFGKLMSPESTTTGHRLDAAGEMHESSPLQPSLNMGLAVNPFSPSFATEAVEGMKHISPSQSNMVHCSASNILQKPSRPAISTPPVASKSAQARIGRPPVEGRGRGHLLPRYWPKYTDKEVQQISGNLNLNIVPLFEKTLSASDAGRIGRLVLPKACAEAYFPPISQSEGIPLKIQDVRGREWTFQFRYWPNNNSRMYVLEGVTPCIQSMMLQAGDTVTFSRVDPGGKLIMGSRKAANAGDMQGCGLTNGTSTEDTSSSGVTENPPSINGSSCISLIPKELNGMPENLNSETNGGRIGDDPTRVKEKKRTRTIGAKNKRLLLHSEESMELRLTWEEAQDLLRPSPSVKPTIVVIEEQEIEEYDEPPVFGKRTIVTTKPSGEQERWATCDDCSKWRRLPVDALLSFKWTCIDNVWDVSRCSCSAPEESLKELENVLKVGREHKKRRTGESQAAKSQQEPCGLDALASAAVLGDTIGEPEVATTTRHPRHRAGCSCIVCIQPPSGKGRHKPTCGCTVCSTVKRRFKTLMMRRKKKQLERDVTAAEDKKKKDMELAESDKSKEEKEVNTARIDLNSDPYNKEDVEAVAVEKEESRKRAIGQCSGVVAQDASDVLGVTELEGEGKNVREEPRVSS
The assay can be described thus: two-hybrid.

For assay [6], the target named is HSL1, yeast two-hybrid fusion (Arabidopsis thaliana) (UniProt Q5CCK4). Nature of the assay: two-hybrid.

Results are given in words; binding and its absence hold for the method and conditions named. For some assays here: Binding seen in cells or lysates may run through a third protein. Some binding calls cover weakened binding; strength is not graded here. For some assays here: Tags and fused reporters may be left off the sequences shown.

B1: CURLY LEAF (CLF), BiFC fusion (protein, UniProt P93831 1-902)
chain: MASEASPSSSATRSEPPKDSPAEERGPASKEVSEVIESLKKKLAADRCISIKKRIDENKKNLFAITQSFMRSSMERGGSCKDGSDLLVKRQRDSPGMKSGIDESNNNRYVEDGPASSGMVQGSSVPVKISLRPIKMPDIKRLSPYTTWVFLDRNQRMTEDQSVVGRRRIYYDQTGGEALICSDSEEEAIDDEEEKRDFLEPEDYIIRMTLEQLGLSDSVLAELASFLSRSTSEIKARHGVLMKEKEVSESGDNQAESSLLNKDMEGALDSFDNLFCRRCLVFDCRLHGCSQDLIFPAEKPAPWCPPVDENLTCGANCYKTLLKSGRFPGYGTIEGKTGTSSDGAGTKTTPTKFSSKLNGRKPKTFPSESASSNEKCALETSDSENGLQQDTNSDKVSSSPKVKGSGRRVGRKRNKNRVAERVPRKTQKRQKKTEASDSDSIASGSCSPSDAKHKDNEDATSSSQKHVKSGNSGKSRKNGTPAEVSNNSVKDDVPVCQSNEVASELDAPGSDESLRKEEFMGETVSRGRLATNKLWRPLEKSLFDKGVEIFGMNSCLIARNLLSGFKSCWEVFQYMTCSENKASFFGGDGLNPDGSSKFDINGNMVNNQVRRRSRFLRRRGKVRRLKYTWKSAAYHSIRKRITEKKDQPCRQFNPCNCKIACGKECPCLLNGTCCEKYCGCPKSCKNRFRGCHCAKSQCRSRQCPCFAADRECDPDVCRNCWVIGGDGSLGVPSQRGDNYECRNMKLLLKQQQRVLLGISDVSGWGAFLKNSVSKHEYLGEYTGELISHKEADKRGKIYDRENCSFLFNLNDQFVLDAYRKGDKLKFANHSPEPNCYAKVIMVAGDHRVGIFAKERILAGEELFYDYRYEPDRAPAWAKKPEAPGSKKDENVTPSVGRPKKLA
With B1, the binding result in assay [1] and in assay [2] was “binds” each time.

B2: CURLY LEAF (CLF), for co-immunoprecipitation (protein, UniProt P93831 1-902)
chain: MASEASPSSSATRSEPPKDSPAEERGPASKEVSEVIESLKKKLAADRCISIKKRIDENKKNLFAITQSFMRSSMERGGSCKDGSDLLVKRQRDSPGMKSGIDESNNNRYVEDGPASSGMVQGSSVPVKISLRPIKMPDIKRLSPYTTWVFLDRNQRMTEDQSVVGRRRIYYDQTGGEALICSDSEEEAIDDEEEKRDFLEPEDYIIRMTLEQLGLSDSVLAELASFLSRSTSEIKARHGVLMKEKEVSESGDNQAESSLLNKDMEGALDSFDNLFCRRCLVFDCRLHGCSQDLIFPAEKPAPWCPPVDENLTCGANCYKTLLKSGRFPGYGTIEGKTGTSSDGAGTKTTPTKFSSKLNGRKPKTFPSESASSNEKCALETSDSENGLQQDTNSDKVSSSPKVKGSGRRVGRKRNKNRVAERVPRKTQKRQKKTEASDSDSIASGSCSPSDAKHKDNEDATSSSQKHVKSGNSGKSRKNGTPAEVSNNSVKDDVPVCQSNEVASELDAPGSDESLRKEEFMGETVSRGRLATNKLWRPLEKSLFDKGVEIFGMNSCLIARNLLSGFKSCWEVFQYMTCSENKASFFGGDGLNPDGSSKFDINGNMVNNQVRRRSRFLRRRGKVRRLKYTWKSAAYHSIRKRITEKKDQPCRQFNPCNCKIACGKECPCLLNGTCCEKYCGCPKSCKNRFRGCHCAKSQCRSRQCPCFAADRECDPDVCRNCWVIGGDGSLGVPSQRGDNYECRNMKLLLKQQQRVLLGISDVSGWGAFLKNSVSKHEYLGEYTGELISHKEADKRGKIYDRENCSFLFNLNDQFVLDAYRKGDKLKFANHSPEPNCYAKVIMVAGDHRVGIFAKERILAGEELFYDYRYEPDRAPAWAKKPEAPGSKKDENVTPSVGRPKKLA
Take B2: the binding entry in assay [3] and in assay [4] was “binds” throughout.

B3: HIGH-LEVEL EXPRESSION OF SUGAR INDUCIBLE2 (HSI2), BiFC fusion (protein, UniProt Q8W4L5 1-790)
chain: MFEVKMGSKMCMNASCGTTSTVEWKKGWPLRSGLLADLCYRCGSAYESSLFCEQFHKDQSGWRECYLCSKRLHCGCIASKVTIELMDYGGVGCSTCACCHQLNLNTRGENPGVFSRLPMKTLADRQHVNGESGGRNEGDLFSQPLVMGGDKREEFMPHRGFGKLMSPESTTTGHRLDAAGEMHESSPLQPSLNMGLAVNPFSPSFATEAVEGMKHISPSQSNMVHCSASNILQKPSRPAISTPPVASKSAQARIGRPPVEGRGRGHLLPRYWPKYTDKEVQQISGNLNLNIVPLFEKTLSASDAGRIGRLVLPKACAEAYFPPISQSEGIPLKIQDVRGREWTFQFRYWPNNNSRMYVLEGVTPCIQSMMLQAGDTVTFSRVDPGGKLIMGSRKAANAGDMQGCGLTNGTSTEDTSSSGVTENPPSINGSSCISLIPKELNGMPENLNSETNGGRIGDDPTRVKEKKRTRTIGAKNKRLLLHSEESMELRLTWEEAQDLLRPSPSVKPTIVVIEEQEIEEYDEPPVFGKRTIVTTKPSGEQERWATCDDCSKWRRLPVDALLSFKWTCIDNVWDVSRCSCSAPEESLKELENVLKVGREHKKRRTGESQAAKSQQEPCGLDALASAAVLGDTIGEPEVATTTRHPRHRAGCSCIVCIQPPSGKGRHKPTCGCTVCSTVKRRFKTLMMRRKKKQLERDVTAAEDKKKKDMELAESDKSKEEKEVNTARIDLNSDPYNKEDVEAVAVEKEESRKRAIGQCSGVVAQDASDVLGVTELEGEGKNVREEPRVSS
In the case of B3, the binding result in assay [1] and in assay [2] was “binds” each time.

B4: HSI2, yeast two-hybrid fusion (protein, UniProt Q8W4L5 1-790)
chain: MFEVKMGSKMCMNASCGTTSTVEWKKGWPLRSGLLADLCYRCGSAYESSLFCEQFHKDQSGWRECYLCSKRLHCGCIASKVTIELMDYGGVGCSTCACCHQLNLNTRGENPGVFSRLPMKTLADRQHVNGESGGRNEGDLFSQPLVMGGDKREEFMPHRGFGKLMSPESTTTGHRLDAAGEMHESSPLQPSLNMGLAVNPFSPSFATEAVEGMKHISPSQSNMVHCSASNILQKPSRPAISTPPVASKSAQARIGRPPVEGRGRGHLLPRYWPKYTDKEVQQISGNLNLNIVPLFEKTLSASDAGRIGRLVLPKACAEAYFPPISQSEGIPLKIQDVRGREWTFQFRYWPNNNSRMYVLEGVTPCIQSMMLQAGDTVTFSRVDPGGKLIMGSRKAANAGDMQGCGLTNGTSTEDTSSSGVTENPPSINGSSCISLIPKELNGMPENLNSETNGGRIGDDPTRVKEKKRTRTIGAKNKRLLLHSEESMELRLTWEEAQDLLRPSPSVKPTIVVIEEQEIEEYDEPPVFGKRTIVTTKPSGEQERWATCDDCSKWRRLPVDALLSFKWTCIDNVWDVSRCSCSAPEESLKELENVLKVGREHKKRRTGESQAAKSQQEPCGLDALASAAVLGDTIGEPEVATTTRHPRHRAGCSCIVCIQPPSGKGRHKPTCGCTVCSTVKRRFKTLMMRRKKKQLERDVTAAEDKKKKDMELAESDKSKEEKEVNTARIDLNSDPYNKEDVEAVAVEKEESRKRAIGQCSGVVAQDASDVLGVTELEGEGKNVREEPRVSS
For B4, the binding result in assay [5] and in assay [6] was “binds” each time.
